# According to the supplement of paper PMC4635364:
# Structures can show the parent of a compound that is named as a salt. The list shows a part of the results. This data set is noisy: repeats of one test often differ as much as different tests do.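 Cells: ReNCell VM human fetal ventral-midbrain neural progenitors, differentiated mitogen-free. Blinded raters compared doublecortin-stained (early neurons) or tyrosine hydroxylase-stained (dopaminergic neurons) images with untreated wells, where 0 means no change. After repeats and both raters were averaged, compounds scoring 2 or above became hits for retesting.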
# What was measured:
# ReNCell VM [1] = assay: neuronal differentiation score (DCX+ cell fraction vs untreated, manual image score) (score (-3 to 3)); higher = more neuronal differentiation; settings: 2 uM, 2 weeks
# ReNCell VM [2] = assay: dopaminergic neuron differentiation score (TH+ cell fraction vs untreated, manual image score) (score (0 to 3)); higher = more TH+ dopaminergic neuron differentiation; settings: 2 uM, 4 weeks, BDNF 10 ng/ml + GDNF 10 ng/ml
compound,measurement,setting,value
Nc1ncn([C@H]2C[C@H](O)[C@@H](CO)O2)c(=O)n1 [Decitabine],neuronal differentiation score,ReNCell VM [1]; library: Tocriscreen,inactive: 0
same,dopaminergic neuron differentiation score,ReNCell VM [2]; library: Tocriscreen,inactive: 0
CC1(C)C=Cc2cc3ccc(=O)oc3cc2O1,neuronal differentiation score,ReNCell VM [1]; library: Spectrum,inactive: 0
same,dopaminergic neuron differentiation score,ReNCell VM [2]; library: Spectrum,inactive: 0
CC(C)CC(N)=O,neuronal differentiation score,ReNCell VM [1]; library: Spectrum,inactive: 0
same,dopaminergic neuron differentiation score,ReNCell VM [2]; library: Spectrum,inactive: 0
CCCCCCCCCCCC[C@@H](C(=O)O)[C@H](C)C(=O)O,neuronal differentiation score,ReNCell VM [1]; library: Spectrum,inactive: 0
same,dopaminergic neuron differentiation score,ReNCell VM [2]; library: Spectrum,inactive: 0
CC(=O)[C@H]1CC[C@H]2[C@@H]3CCC4=CC(=O)CC[C@]4(C)[C@H]3CC[C@]12C,neuronal differentiation score,ReNCell VM [1]; library: Spectrum,inactive: -1
same,dopaminergic neuron differentiation score,ReNCell VM [2]; library: Spectrum,inactive: 0
COC(=O)C1Cc2c([nH]c3ccccc23)CN1C(=O)COc1ccc2c(C)cc(=O)oc2c1 (centres undefined),neuronal differentiation score,ReNCell VM [1]; library: Natural,inactive: -1
same,dopaminergic neuron differentiation score,ReNCell VM [2]; library: Natural,inactive: 0
CCC[C@H](N[C@@H](C)C(=O)N1[C@H](C(=O)O)C[C@@H]2CCCC[C@@H]21)C(=O)OCC,neuronal differentiation score,ReNCell VM [1]; library: Spectrum,inactive: 0
same,dopaminergic neuron differentiation score,ReNCell VM [2]; library: Spectrum,inactive: 0
CC[C@@H]1Cn2c(c3nc(-c4ccccc4)nc-3n(C)c2=O)N1,neuronal differentiation score,ReNCell VM [1]; library: Tocriscreen,inactive: 0
same,dopaminergic neuron differentiation score,ReNCell VM [2]; library: Tocriscreen,inactive: 0
C[C@@H](CN1CCC(Cc2ccccc2)CC1)[C@@H](O)c1ccc(O)cc1 [Ro 25-6981 hydrochloride],neuronal differentiation score,ReNCell VM [1]; library: LOPAC,inactive: 0
same,dopaminergic neuron differentiation score,ReNCell VM [2]; library: LOPAC,inactive: 0
CN1CCN(CCCN2c3ccccc3Sc3ccc(S(=O)(=O)N(C)C)cc32)CC1 [Thioproperazine dimesylate],neuronal differentiation score,ReNCell VM [1]; library: Prestwick,inactive: 0
same,dopaminergic neuron differentiation score,ReNCell VM [2]; library: Prestwick,inactive: 0
CC(C)/N=c1\cc2n(-c3ccc(Cl)cc3)c3ccccc3nc-2cc1Nc1ccc(Cl)cc1 [Clofazimine],neuronal differentiation score,ReNCell VM [1]; library: Prestwick,inactive: 0
same,dopaminergic neuron differentiation score,ReNCell VM [2]; library: Prestwick,inactive: 1
O=c1ccc2cc(O)c(O)cc2o1,neuronal differentiation score,ReNCell VM [1]; library: Spectrum,inactive: 0
same,dopaminergic neuron differentiation score,ReNCell VM [2]; library: Spectrum,inactive: 0
CC1=CCC2C(C)(C)C(=O)CCC2(C)C1COc1ccc2ccc(=O)oc2c1 (centres undefined) [conferone],neuronal differentiation score,ReNCell VM [1]; library: Natural,inactive: 0
same,dopaminergic neuron differentiation score,ReNCell VM [2]; library: Natural,inactive: 0
COc1ccccc1OCC(O)CO (centres undefined) [Guaifenesin],neuronal differentiation score,ReNCell VM [1]; library: Prestwick,inactive: 0
same,dopaminergic neuron differentiation score,ReNCell VM [2]; library: Prestwick,inactive: 0
CCCCOC(=O)c1ccc(O)cc1,neuronal differentiation score,ReNCell VM [1]; library: Spectrum,inactive: 0
same,dopaminergic neuron differentiation score,ReNCell VM [2]; library: Spectrum,inactive: 0
N=C(N)NC(=N)NCCc1ccccc1 [Phenformin hydrochloride],neuronal differentiation score,ReNCell VM [1]; library: Prestwick,inactive: 0
same,dopaminergic neuron differentiation score,ReNCell VM [2]; library: Prestwick,inactive: 0
CN1C(C(=O)Nc2ccccn2)=C(O)c2sccc2S1(=O)=O [Tenoxicam],neuronal differentiation score,ReNCell VM [1]; library: Prestwick,inactive: 0
same,dopaminergic neuron differentiation score,ReNCell VM [2]; library: Prestwick,inactive: 0
COc1cccc(C(=O)CC2c3c(c(Br)c4c(c3OC)OCO4)CCN2C)c1 (centres undefined),neuronal differentiation score,ReNCell VM [1]; library: Natural,inactive: 0
same,dopaminergic neuron differentiation score,ReNCell VM [2]; library: Natural,inactive: 0
O=C(O)/C=C/c1ccc(O)c(O)c1 [Caffeic acid],neuronal differentiation score,ReNCell VM [1]; library: Phytochemical,inactive: 0
same,dopaminergic neuron differentiation score,ReNCell VM [2]; library: Phytochemical,inactive: 0
C/C=C1\[C@H]2C=C(C)C[C@]1(N)c1ccc(=O)[nH]c1C2 [Huperzine A],neuronal differentiation score,ReNCell VM [1]; library: Phytochemical,inactive: 0
same,dopaminergic neuron differentiation score,ReNCell VM [2]; library: Phytochemical,inactive: 0
COc1cc(C(=O)NCc2ccc(OCCN(C)C)cc2)cc(OC)c1OC [Trimethobenzamide hydrochloride],neuronal differentiation score,ReNCell VM [1]; library: Prestwick,inactive: 0
same,dopaminergic neuron differentiation score,ReNCell VM [2]; library: Prestwick,inactive: 1
NC(=O)c1cnccn1 [Pyrazinamide],neuronal differentiation score,ReNCell VM [1]; library: Prestwick,inactive: 0
same,dopaminergic neuron differentiation score,ReNCell VM [2]; library: Prestwick,inactive: 0
C#C[C@]1(OC(C)=O)CC[C@H]2[C@@H]3CCC4=C[C@@H](OC(C)=O)CC[C@@H]4[C@H]3CC[C@@]21C,neuronal differentiation score,ReNCell VM [1]; library: Spectrum,inactive: 0
same,dopaminergic neuron differentiation score,ReNCell VM [2]; library: Spectrum,inactive: 0
CCCCCCCCCC[Si](C)(C)CCC(=O)NC(Cc1ccc(C)cc1)c1ccccc1 (centres undefined) [Sandoz 58-035],neuronal differentiation score,ReNCell VM [1]; library: LOPAC,inactive: 0
same,dopaminergic neuron differentiation score,ReNCell VM [2]; library: LOPAC,inactive: 0
C=C[C@@H](C1=CC(=O)C(OC)=C(OC)C1=O)c1ccccc1,neuronal differentiation score,ReNCell VM [1]; library: Spectrum,inactive: 0
same,dopaminergic neuron differentiation score,ReNCell VM [2]; library: Spectrum,inactive: 0
COc1ccc2c(c1)O[C@H]1c3ccc(OC)cc3OC[C@@H]21,neuronal differentiation score,ReNCell VM [1]; library: Spectrum,inactive: 0
same,dopaminergic neuron differentiation score,ReNCell VM [2]; library: Spectrum,inactive: 0
CC(=O)OCC1=C(C(=O)O)N2C(=O)[C@@H](NC(=O)Cc3cccs3)[C@H]2SC1,neuronal differentiation score,ReNCell VM [1]; library: Spectrum,inactive: 1
same,dopaminergic neuron differentiation score,ReNCell VM [2]; library: Spectrum,inactive: 0
CN[C@@H]1[C@H](O[C@H]2[C@H](O[C@H]3[C@H](O)[C@@H](O)[C@H](NC(=N)N)[C@@H](O)[C@@H]3NC(=N)N)O[C@@H](C)[C@]2(O)CO)O[C@@H](CO)[C@H](O)[C@H]1O [Dihydrostreptomycin sulfate],neuronal differentiation score,ReNCell VM [1]; library: Prestwick,inactive: 0
same,dopaminergic neuron differentiation score,ReNCell VM [2]; library: Prestwick,inactive: 0
O=C(O)C1=CCCN(CCON=C(c2ccccc2)c2ccccc2)C1 [NO-711 hydrochloride],neuronal differentiation score,ReNCell VM [1]; library: LOPAC,inactive: 0
same,dopaminergic neuron differentiation score,ReNCell VM [2]; library: LOPAC,inactive: 0
Cn1nnc2c(C(N)=O)ncn2c1=O,neuronal differentiation score,ReNCell VM [1]; library: Spectrum,inactive: 0
same,dopaminergic neuron differentiation score,ReNCell VM [2]; library: Spectrum,inactive: 0
CN(C)CC/C=C1\c2ccccc2CSc2ccccc21 [Dosulepin hydrochloride],neuronal differentiation score,ReNCell VM [1]; library: Prestwick,inactive: 0
same,dopaminergic neuron differentiation score,ReNCell VM [2]; library: Prestwick,inactive: 0
C=C[C@H]1[C@H](O[C@@H]2O[C@H](CO)[C@@H](O)[C@H](O)[C@H]2O)OC=C2C(=O)NCC[C@H]21 [Bakankosine],neuronal differentiation score,ReNCell VM [1]; library: Phytochemical,inactive: -1
same,dopaminergic neuron differentiation score,ReNCell VM [2]; library: Phytochemical,inactive: 0

# A second format for some results above.
compound	measurement	setting	value
O=C(O)/C=C/c1ccc(O)c(O)c1 [Caffeic acid]	dopaminergic neuron differentiation score	ReNCell VM [2]; library: Phytochemical	inactive: 0
C/C=C1\[C@H]2C=C(C)C[C@]1(N)c1ccc(=O)[nH]c1C2 [Huperzine A]	neuronal differentiation score	ReNCell VM [1]; library: Phytochemical	inactive: 0
same	dopaminergic neuron differentiation score	ReNCell VM [2]; library: Phytochemical	inactive: 0
COc1cc(C(=O)NCc2ccc(OCCN(C)C)cc2)cc(OC)c1OC [Trimethobenzamide hydrochloride]	neuronal differentiation score	ReNCell VM [1]; library: Prestwick	inactive: 0
same	dopaminergic neuron differentiation score	ReNCell VM [2]; library: Prestwick	inactive: 1
